Results on two substances are retold here after patent US20050239064A1 (published 2005).

By UniProt entry, the sequences of proteins in these tests, tags left out. Where a name states a change or a piece, a line headed by the entry shows the natural chain unless it says otherwise.
UniProt P21519: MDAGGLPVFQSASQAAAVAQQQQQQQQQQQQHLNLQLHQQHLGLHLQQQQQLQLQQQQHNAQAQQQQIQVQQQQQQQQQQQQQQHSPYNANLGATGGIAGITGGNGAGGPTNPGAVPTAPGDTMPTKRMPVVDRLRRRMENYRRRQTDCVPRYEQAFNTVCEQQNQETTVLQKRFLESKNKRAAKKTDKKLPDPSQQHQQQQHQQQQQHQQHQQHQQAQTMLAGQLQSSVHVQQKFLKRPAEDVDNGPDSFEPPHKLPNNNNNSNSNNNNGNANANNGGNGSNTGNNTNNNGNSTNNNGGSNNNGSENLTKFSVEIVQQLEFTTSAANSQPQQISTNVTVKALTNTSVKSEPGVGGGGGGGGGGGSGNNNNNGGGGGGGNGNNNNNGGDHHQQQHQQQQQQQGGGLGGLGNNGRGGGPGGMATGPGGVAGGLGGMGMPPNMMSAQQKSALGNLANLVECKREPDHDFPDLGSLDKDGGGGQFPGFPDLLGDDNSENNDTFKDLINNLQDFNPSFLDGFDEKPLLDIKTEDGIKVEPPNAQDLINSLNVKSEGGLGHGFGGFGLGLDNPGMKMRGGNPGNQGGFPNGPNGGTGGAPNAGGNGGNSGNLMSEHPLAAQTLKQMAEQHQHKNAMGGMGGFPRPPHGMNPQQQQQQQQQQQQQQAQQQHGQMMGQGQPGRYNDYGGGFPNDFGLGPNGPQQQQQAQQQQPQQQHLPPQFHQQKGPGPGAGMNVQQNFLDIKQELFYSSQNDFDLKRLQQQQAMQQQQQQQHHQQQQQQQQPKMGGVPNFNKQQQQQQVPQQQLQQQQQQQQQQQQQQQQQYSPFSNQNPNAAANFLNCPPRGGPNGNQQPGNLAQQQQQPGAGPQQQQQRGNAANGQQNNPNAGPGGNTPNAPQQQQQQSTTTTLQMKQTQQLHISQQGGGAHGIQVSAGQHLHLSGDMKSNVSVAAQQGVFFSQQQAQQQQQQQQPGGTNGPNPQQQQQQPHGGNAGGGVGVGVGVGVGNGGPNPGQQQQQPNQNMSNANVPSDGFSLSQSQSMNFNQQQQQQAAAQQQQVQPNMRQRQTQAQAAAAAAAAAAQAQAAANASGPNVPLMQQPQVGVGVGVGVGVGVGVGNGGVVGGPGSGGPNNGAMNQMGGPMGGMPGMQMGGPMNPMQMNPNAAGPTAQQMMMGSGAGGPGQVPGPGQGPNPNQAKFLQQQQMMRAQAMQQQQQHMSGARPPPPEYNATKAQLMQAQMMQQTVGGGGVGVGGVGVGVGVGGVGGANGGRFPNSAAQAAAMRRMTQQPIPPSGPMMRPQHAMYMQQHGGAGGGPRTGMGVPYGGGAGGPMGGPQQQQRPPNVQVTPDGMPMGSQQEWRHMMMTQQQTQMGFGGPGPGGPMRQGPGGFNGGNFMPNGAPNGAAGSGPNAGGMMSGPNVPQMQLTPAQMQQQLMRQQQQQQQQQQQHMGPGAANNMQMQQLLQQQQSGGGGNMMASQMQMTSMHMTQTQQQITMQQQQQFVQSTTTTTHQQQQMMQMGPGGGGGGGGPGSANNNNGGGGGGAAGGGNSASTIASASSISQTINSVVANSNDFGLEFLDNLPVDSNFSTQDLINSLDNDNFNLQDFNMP

Results are given in words; binding and its absence hold for the method and conditions named. Some entries that bind do so weakly or less than the wild type. Where a sequence is shown, tags or fusion partners need not be part of it.

Assay [1] deals with T1, Mip30 two-hybrid clone, amino-terminally truncated protein of 315 amino acids, fused to the E. coli B42 transactivation domain encoded by pJG4-5 (Drosophila).
T1 sequence: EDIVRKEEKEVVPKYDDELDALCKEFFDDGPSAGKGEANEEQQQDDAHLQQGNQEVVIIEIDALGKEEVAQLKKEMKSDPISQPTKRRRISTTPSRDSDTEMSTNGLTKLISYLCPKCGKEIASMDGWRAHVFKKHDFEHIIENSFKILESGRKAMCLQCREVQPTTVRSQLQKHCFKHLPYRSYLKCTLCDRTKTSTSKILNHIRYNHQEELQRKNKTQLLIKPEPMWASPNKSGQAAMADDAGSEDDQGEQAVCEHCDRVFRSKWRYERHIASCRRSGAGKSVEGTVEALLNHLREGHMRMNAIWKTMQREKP
As to the kind of experiment: yeast two-hybrid in strain EGY48, β-galactosidase units.

For assay [2] the target is unchanged. As to the kind of experiment: yeast two-hybrid, lacZ reporter.
The target of assay [3] is T2, Mip1 tagged at its amino terminus with the HA epitope, expressed from pcDNA3 in 293T cells (Drosophila).
T2 sequence: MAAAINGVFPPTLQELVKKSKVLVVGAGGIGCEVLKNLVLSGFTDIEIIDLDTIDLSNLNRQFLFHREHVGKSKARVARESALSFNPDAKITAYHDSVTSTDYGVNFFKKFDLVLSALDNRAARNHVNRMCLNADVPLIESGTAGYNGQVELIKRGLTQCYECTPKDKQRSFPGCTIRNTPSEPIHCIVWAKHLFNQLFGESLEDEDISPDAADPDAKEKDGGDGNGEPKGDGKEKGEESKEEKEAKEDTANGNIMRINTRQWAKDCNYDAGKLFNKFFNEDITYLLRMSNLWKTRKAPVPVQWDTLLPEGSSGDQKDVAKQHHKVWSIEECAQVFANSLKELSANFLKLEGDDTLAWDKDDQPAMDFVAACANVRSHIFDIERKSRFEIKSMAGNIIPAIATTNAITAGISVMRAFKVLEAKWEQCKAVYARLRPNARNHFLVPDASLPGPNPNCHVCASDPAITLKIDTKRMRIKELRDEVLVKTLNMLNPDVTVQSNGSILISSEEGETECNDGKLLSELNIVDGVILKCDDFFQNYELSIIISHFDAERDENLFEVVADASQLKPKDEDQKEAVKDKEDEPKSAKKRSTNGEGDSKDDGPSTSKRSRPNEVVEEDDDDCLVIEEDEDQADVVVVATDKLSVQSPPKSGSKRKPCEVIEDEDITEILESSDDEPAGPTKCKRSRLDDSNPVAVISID
As to the kind of experiment: co-expression in 293T cells, indirect immunofluorescence.

Regarding “truncated Mam protein (carboxy-terminal 32 amino acids of full-length Drosophila Mastermind deleted) fused to the Gal4 DNA-binding domain encoded by pEG202 (from UniProt P21519 1-1562)”, the binding result in assay [1] and in assay [2] was “binds” each time. For the substance “Drosophila Mastermind (Mam) tagged at its amino terminus with the Flag epitope, expressed from pcDNA3 in 293T cells (from UniProt P21519 1-1594)”, the binding entry in assay [3] is “binds”.
